No constants are given. Whether binding was seen depends on the method and setting. For part of these data: Binding can be weak; no strength is given. For part of these data: Binding seen in cells or lysates may run through a third protein.
Tests used:
[1] = biological target: T1, RBP45d (Arabidopsis) (UniProt Q8VXZ9); assay: split reporter; BiFC in Arabidopsis protoplasts; vectors pE3130 and pE3136; YFP fluorescence
T1 sequence: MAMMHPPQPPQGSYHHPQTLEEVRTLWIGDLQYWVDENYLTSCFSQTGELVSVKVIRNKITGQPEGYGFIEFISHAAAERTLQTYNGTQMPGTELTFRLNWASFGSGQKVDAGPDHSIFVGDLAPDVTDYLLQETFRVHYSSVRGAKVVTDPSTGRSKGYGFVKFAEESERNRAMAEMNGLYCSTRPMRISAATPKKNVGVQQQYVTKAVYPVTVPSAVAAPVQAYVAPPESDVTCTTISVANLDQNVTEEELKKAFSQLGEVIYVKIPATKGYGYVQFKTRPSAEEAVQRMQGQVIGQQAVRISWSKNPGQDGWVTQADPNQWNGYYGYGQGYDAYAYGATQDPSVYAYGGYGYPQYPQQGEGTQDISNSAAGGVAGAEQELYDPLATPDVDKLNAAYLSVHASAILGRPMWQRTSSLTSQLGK

[2] = biological target: T2, RBP47b (Arabidopsis) (UniProt Q0WW84); assay: as above
T2 sequence: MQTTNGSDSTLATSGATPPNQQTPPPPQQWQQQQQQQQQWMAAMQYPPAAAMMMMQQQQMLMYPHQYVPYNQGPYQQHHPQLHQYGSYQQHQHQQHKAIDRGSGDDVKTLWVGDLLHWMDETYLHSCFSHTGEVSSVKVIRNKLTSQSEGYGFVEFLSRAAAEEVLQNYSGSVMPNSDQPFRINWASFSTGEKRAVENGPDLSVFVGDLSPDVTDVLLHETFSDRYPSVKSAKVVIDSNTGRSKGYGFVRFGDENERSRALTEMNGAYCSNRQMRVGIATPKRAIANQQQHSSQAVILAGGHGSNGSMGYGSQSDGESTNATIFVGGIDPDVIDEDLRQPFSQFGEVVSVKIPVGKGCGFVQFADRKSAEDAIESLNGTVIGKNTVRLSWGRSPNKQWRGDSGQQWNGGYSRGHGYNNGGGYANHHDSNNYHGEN

[3] = biological target: T1, RBP45d (Arabidopsis); assay: two-hybrid; yeast strain AH109; fusions from pDEST22 and pDEST32; transformants selected on SD-Leu-Trp; interactions tested on SD-Trp-Leu-His with or without 5 mM 3-AT

binding [1]: binds
binding [2]: no binding
binding [3]: binds
Substance: PRP39a (Arabidopsis)

Source: paper PMC9813592, “A genetic screen in Arabidopsis reveals the identical roles for RBP45d and PRP39a in 5’ cryptic splice site selection”
